These results are taken from PubChem BioAssay AID2685 (National Center for Advancing Translational Sciences (NCATS), 2010).

The list shows a part of the results. Further columns of the screen follow, without active or inactive calls. Most of these compounds were active or inconclusive in the main read-out, so they are no random draw. The note in brackets gives the kind of curve behind each potency; many fits are weak.

The experiment can be described thus: qHTS Assay for Lipid Storage Modulators in Drosophila S3 Cells.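 On cell number change: cells counted by Cell Tracker Red CMTPX staining in the red channel.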 The conditions noted are these: BODIPY lipid droplet fluorescence, 18-24 h; for cell number change: measured here: cell count max response, cells fed with added oleic acid. An outline of the steps: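 Drosophila S3 cells loaded with oleic acid (400 uM, as added) and compounds at several concentrations; lipid droplets imaged by 488-nm laser-scanning cytometry, 500–530 nm intensity and object ratio to cell channel. Percent activity normalized to 20 uM Triacsin C.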

The mark [1] stands for this setting: measured here: cell number channel AC50, cells fed with added oleic acid.
[2] abbreviates: measured here: lipid fluorescence (Fed channel) AC50, cells fed with added oleic acid.

Regarding `O=C(CCCc1ccccc1)Nc1cccc2c1CCCC2`, the cell number change came out at 30.2%.

On to `O=[N+]([O-])c1ccc(N/N=C2\CC3CC=CC23)c([N+](=O)[O-])c1` (configuration not stated), for which the cell number change is 4.92%.

For `Cc1ccc2occ(/C=N/O)c(=O)c2c1`, the cell number change was -7.03%. The AC50 under setting [1] is 0.92 µM [falling, full curve, poor fit]. The AC50 under setting [2] is 2.59 µM [falling, partial curve].

In the case of `Cc1ccc(/C=N/Nc2nnc(Cc3ccccc3)c(=O)[nH]2)o1`, the cell number change amounted to 11.9%.

For `CCCN(CC(=O)Nc1ccccc1OC)C(=O)c1ccc2[nH]c3c(c2c1)CC(C)CC3` (configuration not stated), the cell number change is -11%. The half-maximal activity concentration (AC50) under setting [2] is 6.51 µM [falling, full curve, poor fit].

With `O=C(NCc1cccnc1)c1ccc(-c2ccccc2[N+](=O)[O-])o1`, the cell number change came to 52.6%. Also, under setting [1], the half-maximal activity concentration (AC50) is 3.66 µM [rising, partial curve]. For the same compound, the AC50 under setting [2] is 23.1 µM [rising, single point].

`CN(C(=O)CSc1nc2ccccc2n1C)C1CCS(=O)(=O)C1` (configuration not stated): the cell number change is 4.2%. Besides, the concentration at half-maximal activity (AC50) under setting [1] was 0.58 µM [falling, full curve].

Turning to `CC(C)(C)S(=O)(=O)c1cnc2c(-c3ccsc3)cnn2c1N`, the cell number change was -2.09%. Under setting [1], the AC50 was 0.164 µM [falling, full curve, poor fit].

With `O=C(Nc1ccc2oc(-c3ccccc3F)nc2c1)c1ccco1`, the cell number change worked out at 18.6%. Also, under setting [1], the half-maximal activity concentration (AC50) is 6.51 µM [rising, partial curve, poor fit]. Under setting [2], the concentration at half-maximal activity (AC50) is 6.51 µM [rising, partial curve, poor fit].

On to `Nc1nc(N)nc(-c2cc(F)ccc2O)n1`, for which the cell number change worked out at 6.73%. Under setting [2], the half-maximal activity concentration (AC50) is 0.0103 µM [rising, full curve, poor fit].

As for `CCN(CC(=O)Nc1ccccc1C(F)(F)F)C(=O)CCc1ccccc1`, the cell number change turned out to be 8.97%. In addition, under setting [1], the concentration at half-maximal activity (AC50) is 0.82 µM [rising, single point]. Moreover, the AC50 under setting [2] was 0.291 µM [falling, partial curve].

With `Cc1ccc(NC(=O)C2CCN(S(=O)(=O)c3ccc4c(c3)CCCC(=O)N4)CC2)cc1N(C)C`, the cell number change is -18.3%. For the same compound, the half-maximal activity concentration (AC50) under setting [2] was 23.1 µM [rising, single point].

Turning to `O=C(CCn1ccc2ccccc21)Nc1ccc(N2CCOCC2)cc1`, the cell number change is 42.6%. In addition, the AC50 under setting [1] was 5.17 µM [rising, single point]. For the same compound, the concentration at half-maximal activity (AC50) under setting [2] is 1.3 µM [rising, full curve].

With `CN(C)C(=O)[C@H]1C[C@H]1[C@@H](O)[C@H](CO)NC(=O)[C@H](COCc1ccccc1)NC(=O)OC(C)(C)C`, the cell number change was -0.971%. The concentration at half-maximal activity (AC50) under setting [1] is 6.51 µM [falling, single point].

With `CCn1c(C)c(C)c2cc(C(=O)NCCN3CCCCCC3)ccc21`, the cell number change is -7.65%. The AC50 under setting [2] is 6.51 µM [rising, single point].

Take `COc1ccc(C)cc1-n1nnnc1SCC(=O)NC(=O)NCc1ccco1`: under setting [1], the AC50 is 0.517 µM [rising, partial curve].

On to `O=C(CSc1ccc(F)cc1)Nc1ccccc1Br`, for which the cell number change is -20.3%.

`COc1ccc(OC)c(NC(=O)C2CCN(S(=O)(=O)c3ccc4c(c3)CC(C)N4C(C)=O)CC2)c1` (configuration not stated): the cell number change is -21.1%.

As to `O=C(CSc1nnc(CNC(=O)c2c(F)cccc2Cl)o1)NCCc1ccccc1`, the cell number change worked out at 11.6%. Further, the concentration at half-maximal activity (AC50) under setting [2] was 5.17 µM [rising, single point].

Consider `CC(=O)CC(=O)Nc1ccccc1NC(C)=O`, for which the cell number change was -31.4%. Moreover, under setting [1], the concentration at half-maximal activity (AC50) is 0.058 µM [falling, full curve, poor fit]. In addition, the AC50 under setting [2] was 0.058 µM [falling, full curve].

In the case of `CCOc1cccc(OCCOCCNC(C)(C)C)c1`, the cell number change was -21.5%. The AC50 under setting [2] was 29.1 µM [falling, single point].

Take `CC1(C)NC(=O)N(CCOCCOc2cccc(Oc3ccccc3)c2)C1=O`: the cell number change is -22.4%.

As to `Cc1cccc(-c2cccc(NC(=O)C3CCCN(C(=O)c4csc(C)n4)C3)c2)c1` (configuration not stated), the cell number change was -40.4%. Further, under setting [1], the half-maximal activity concentration (AC50) was 13 µM [falling, partial curve, poor fit]. Moreover, the half-maximal activity concentration (AC50) under setting [2] was 13 µM [falling, partial curve].

Turning to `COc1ccccc1NC(=O)NC1CC(=O)N(c2ccc3c(c2)OCCO3)C1` (configuration not stated), the cell number change is -69.5%. Besides, the concentration at half-maximal activity (AC50) under setting [1] was 23.1 µM [falling, single point]. Further, the AC50 under setting [2] is 18.4 µM [falling, single point].

On to `Cc1cc(C)cc(OCC(=O)N/N=C/c2ccncc2)c1`, for which the cell number change is 5.93%. The concentration at half-maximal activity (AC50) under setting [2] was 0.461 µM [rising, full curve, poor fit].

Take `COCCn1c(C(F)(F)F)ccc(NC(=O)c2ccccc2)c1=O`: the half-maximal activity concentration (AC50) under setting [2] was 11.6 µM [falling, single point].

On to `O=C(Nc1cc2c3c(c1)CC(=O)N3CCC2)c1ccc(F)cc1`, for which the cell number change is 41.8%. Further, under setting [1], the AC50 is 13 µM [rising, partial curve].

With `Cc1cc(=O)c(C(=O)O)nn1-c1ccccc1`, the cell number change was -36.1%. Moreover, under setting [1], the half-maximal activity concentration (AC50) was 29.1 µM [falling, single point]. The AC50 under setting [2] is 20.6 µM [falling, single point].

On to `O=C(O)CSc1nnc(-c2ccccc2Br)n1-c1cccc(C(F)(F)F)c1`, for which the cell number change is -32.5%. Further, under setting [1], the half-maximal activity concentration (AC50) was 0.231 µM [falling, full curve, poor fit]. The concentration at half-maximal activity (AC50) under setting [2] is 29.1 µM [falling, single point].

`O=C(CNC(=O)c1cc(Cl)nc2ccccc12)Nc1ccccc1Br`: the cell number change turned out to be 0.134%.

Turning to `CCCC[n+]1ccc(-c2nc3ccc([N+](=O)[O-])cc3[nH]2)cc1`, the half-maximal activity concentration (AC50) under setting [1] is 0.00461 µM [rising, full curve, poor fit].

Take `CN1CCN(c2nc(-c3ccccc3)c3cc(Cl)ccc3n2)CC1`: the cell number change was 15.7%. Besides, the AC50 under setting [2] is 0.731 µM [rising, full curve, poor fit].

On to `CCOc1cc(/C=C2\N=C(SC(C)C(N)=O)N(c3ccc(OC(F)F)cc3)C2=O)ccc1O` (configuration not stated), for which the cell number change was -23.4%. For the same compound, under setting [2], the AC50 is 29.1 µM [falling, single point].

In the case of `Cc1ccc(C(=O)Nc2nc3ccccc3n2CCN2CCCC2)cc1`, the cell number change stood at 3.56%. For the same compound, the AC50 under setting [2] is 29.1 µM [rising, single point].

`Cc1ccc(-c2cc(C(=O)N3CCc4ccccc4C3)no2)cc1`: the cell number change worked out at 1.49%. Moreover, the concentration at half-maximal activity (AC50) under setting [2] is 6.51 µM [falling, single point].

As for `COc1ccc(NC(=O)CNc2cc(C)ccc2C)cc1S(=O)(=O)N1CCOCC1`, the cell number change stood at 4.19%. Under setting [2], the AC50 was 4.11 µM [rising, single point].

`CCCCNC(=O)Nc1ccccc1C(=O)Nc1ccc(OC)cc1`: the cell number change was determined as 43.5%. The AC50 under setting [1] was 2.31 µM [rising, full curve]. The AC50 under setting [2] was 16.4 µM [rising, partial curve].

Turning to `O=[N+]([O-])c1ccc(NC(=S)NCCc2ccccc2)cc1`, the cell number change was -62.1%. Besides, under setting [1], the AC50 is 11.6 µM [falling, partial curve]. Further, under setting [2], the AC50 is 11.6 µM [falling, partial curve].

With `COc1cccc(-c2nc(CS(=O)(=O)CC(=O)Nc3ccc(F)cc3F)c(C)o2)c1`, the concentration at half-maximal activity (AC50) under setting [2] was 25.9 µM [rising, partial curve].

Turning to `C1CCC(CNc2c3c(nc4nnnn24)CCCC3)CC1`, the cell number change is -18.9%. Moreover, under setting [2], the half-maximal activity concentration (AC50) is 1.3 µM [rising, full curve, poor fit].

`Cc1ccc(C)c(OCCC(=O)Nc2cccc(S(=O)(=O)NC3=NCCCCC3)c2)c1`: the cell number change was -16.5%. Besides, the AC50 under setting [2] was 32.6 µM [falling, single point].

As to `Cc1ccc(-n2nc3c(=O)n(CCCC(=O)NCc4cccc(Cl)c4)nc(C)c3c2C)cc1`, the cell number change was -17.6%. Moreover, the AC50 under setting [2] was 0.92 µM [rising, full curve].

For `CC1=NN(c2ccc(Br)cc2)C(=O)/C1=C/c1ccc(-c2ccccc2C(=O)O)o1`, the cell number change was 15.5%. In addition, the AC50 under setting [2] is 6.51 µM [falling, single point].

With `Cc1cc(NC(=O)c2ccccc2Cl)c(C(C)C)cc1O`, the cell number change was -8.92%. Moreover, the AC50 under setting [2] is 0.00411 µM [falling, full curve, poor fit].

Turning to `O=C(O)c1cccc(OCCN2CCCC2=O)c1`, the cell number change was -17.4%. Also, the half-maximal activity concentration (AC50) under setting [2] is 6.51 µM [falling, single point].

As for `COCCN(Cc1ccccc1)C(=O)c1cccc(S(=O)(=O)N2CCCc3ccccc32)c1`, the cell number change was determined as 4.67%. Besides, the concentration at half-maximal activity (AC50) under setting [2] was 1.03 µM [falling, full curve].

`O=C(c1ccc([N+](=O)[O-])o1)N1CCc2ccccc21`: the cell number change is 13.6%. The AC50 under setting [2] is 0.206 µM [falling, full curve, poor fit].

Regarding `COc1ccc(OC)c(-c2csc(CCn3nc(C)cc3C)n2)c1`, the cell number change turned out to be 62%. For the same compound, the AC50 under setting [1] was 11.6 µM [rising, partial curve]. The concentration at half-maximal activity (AC50) under setting [2] is 29.1 µM [rising, partial curve, poor fit].

As for `CC1CCCCN1c1ncnc(N)c1[N+](=O)[O-]` (configuration not stated), the cell number change stood at 13.1%.

Regarding `O=C1CCC(/C=C/c2ccccc2)=NN1Cc1ccccc1`, the cell number change is -28%. For the same compound, the AC50 under setting [1] is 0.058 µM [rising, partial curve, poor fit].

On to `CCOC(=O)CSc1ccc(C(=O)Nc2ccc(OC)cc2)cn1`, for which the cell number change is 23.7%. The half-maximal activity concentration (AC50) under setting [1] is 3.26 µM [falling, single point]. Also, under setting [2], the half-maximal activity concentration (AC50) is 4.11 µM [falling, single point].

Consider `COc1cc(/C=N/NC(=O)c2ccncc2)ccc1OCC(=O)Nc1ccccc1`, for which the cell number change stood at 5.04%. In addition, the AC50 under setting [2] was 6.51 µM [falling, single point].

Turning to `CCC(=O)Nc1c(C(=O)Nc2cccc(OC)c2)oc2ccccc12`, the cell number change is -6.99%. Besides, the AC50 under setting [2] is 32.6 µM [falling, single point].

For the compound `Cc1cccc(CN2CCc3c([nH]c4ccccc34)C2CC(C)C)n1` (configuration not stated), the cell number change was -18.1%. Besides, the half-maximal activity concentration (AC50) under setting [2] was 10.3 µM [falling, partial curve].

In the case of `CC1SC(C)C(=O)N(CC(=O)Nc2ccc([N+](=O)[O-])cc2)C1=O` (configuration not stated), the cell number change amounted to 14.5%. Further, under setting [1], the concentration at half-maximal activity (AC50) is 6.51 µM [falling, single point]. Besides, under setting [2], the half-maximal activity concentration (AC50) was 6.51 µM [falling, single point].

Consider `O=C(/C=C/c1ccc2c(c1)OCO2)Nc1ccc(Cl)cn1`, for which the concentration at half-maximal activity (AC50) under setting [1] was 0.184 µM [rising, full curve, poor fit] and the half-maximal activity concentration (AC50) under setting [2] was 0.184 µM [rising, full curve, poor fit].

`COc1ccc(O)c(C(=O)c2cnc3c(c2)CN(C)C(=O)N3)c1`: the cell number change turned out to be 80.4%. Also, under setting [2], the AC50 was 29.1 µM [rising, single point].
